Results are given in words; binding and its absence hold for the method and conditions named. Binding seen in cells or lysates may run through a third protein. Some binding calls cover weakened binding; strength is not graded here.
Molecular target: CENP-T tagged with a fluorescent protein (human) (UniProt Q96BT3)
Assay: FRET or BRET; FRET between CENP-T and CENP-W constructs tagged with fluorescent proteins, in human cells; unpublished observations

The chains behind the UniProt entries cited, without tags or fusion partners.
UniProt Q96BT3: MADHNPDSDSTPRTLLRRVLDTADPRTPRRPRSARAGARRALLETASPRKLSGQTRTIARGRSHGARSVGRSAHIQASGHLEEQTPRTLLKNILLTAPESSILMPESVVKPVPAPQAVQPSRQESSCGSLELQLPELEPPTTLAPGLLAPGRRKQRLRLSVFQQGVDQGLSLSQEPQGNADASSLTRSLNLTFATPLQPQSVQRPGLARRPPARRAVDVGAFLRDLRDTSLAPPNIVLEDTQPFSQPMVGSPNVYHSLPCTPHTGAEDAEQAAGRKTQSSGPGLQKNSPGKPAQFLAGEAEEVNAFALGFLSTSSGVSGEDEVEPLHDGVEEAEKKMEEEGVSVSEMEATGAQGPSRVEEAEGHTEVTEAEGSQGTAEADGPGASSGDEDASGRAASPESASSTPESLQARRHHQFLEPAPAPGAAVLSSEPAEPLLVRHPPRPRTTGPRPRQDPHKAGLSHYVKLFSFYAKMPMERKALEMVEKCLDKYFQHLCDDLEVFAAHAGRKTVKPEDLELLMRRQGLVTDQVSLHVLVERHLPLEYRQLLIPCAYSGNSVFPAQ

- binding: binds
Substance: CENP-W tagged with a fluorescent protein (from UniProt Q5EE01-1 1-88)

Source: PMC3114758
